According to patent publication US20240358862:
Construct, isoform or probe ends are uncertain for at least one entry. Where cells or extracts were used, other partners may take part.

By UniProt entry, the sequences of proteins in these tests, tags left out. Residues count along the entry.
UniProt O43653, 12-83: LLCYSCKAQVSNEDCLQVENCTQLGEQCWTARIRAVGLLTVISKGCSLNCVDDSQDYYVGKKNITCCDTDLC

Target: PSCA (prostate stem cell antigen) (Homo sapiens) (UniProt O43653)
Test: pull-down
Conditions: PC-3 membrane proteins; anti-PSCA western blot and LC-MS/MS identification; protein in an extract; label: 3'-ICG (biotin or agarose conjugate for pull-down); single-stranded DNA

## TGCCACTACAGCTGGTTCGGTTTGGTGACTTCGTTCTTCGTTGTGGTGCTTAGTGGC [GGa-ICG]
  binding result: binds
